{"source": "PubChem BioAssay AID504706", "about": "(National Center for Advancing Translational Sciences (NCATS), 2011)", "note": "The whole screen tested about 320,000 compounds, of which about 200 (0.062%) were called active. Inconclusive results (about 6%) are left out. The call rests on the fitted dose curve; in most records, active means well fitted activation curve with a large enough effect; inconclusive means small, poorly fitted or top-dose-only effect; inactive means no such curve, though single readings can be large or run the other way. Only a part is listed here, and it is no random draw. Entries without a call were filed so in the source. Potency means the concentration at half of the fitted maximal effect.", "data": [{"assay": "qHTS assay for re-activators of p53 using a Luc reporter; further: nearly all actives have a fitted effect of over 45% in size; on activity change, positive = activation: % of control where 0% means no effect", "conditions": "H1299 p53-A138V BP100-luciferase reporter, luminescence, 24 h; activity change, positive = activation: at 92.2 µM (top of the series)", "text": "The p53 tumor suppressor plays a key role in suppression of tumorigenesis and in human carcinogenesis. It is frequently found inactivated in human cancers, mainly by point mutation. These point mutations are found in a wide variety of human cancers and a majority of them affect the DNA binding domain of the protein. The point mutations either alter native p53 conformation or abolish DNA contact. Additionally, cancer cells with p53 mutations are more resistant to chemo-radiation therapies. In order to find activators to reactivate this important protein, a cell-based screen for p53-dependent luciferase-reporter expression was developed. A p53-null H1299 lung cancer cell line was stably co-transfected with a temperature sensitive p53 mutant, p53-A138V, and a p53-responsive BP100-luciferase reporter. This cell model has previously been characterized in a gene chip profiling experiment for p53 activation. By lowering the culture temperature from 37 deg C (mutant p53 conformation) to 32 deg C (w.t. p53 conformation), a 30-60 fold increase in activation of luciferase activity is observed. At assay temperate, 37 deg C, basal reporter expression is very low and after the addition of detection reagent, a luminescent read-out is carried out. NIH Chemical Genomics Center [NCGC] NIH Molecular Libraries Probe Production Centers Network [MLPCN] MLPCN Grant: DA031088-01A1 Assay Provider (PI): Yi Sung, University of Michigan at Ann Arbor\n5ul of 1000 cells per well are dispensed in all wells except column 4, into white solid-bottom TC-treated Kalypsys plates. The cells are kept in Opti-MEM and supplemented with 10% FBS and dispensed using a Multidrop (Thermo). Then using the Kalypsys pin-tool, 23nl of compounds are pinned. The compounds are starting concentration at 10mM, with 1:5 dilution, 4 points, and the control compound nocodazole is pinned in column 1 at 25mM, 1:3 dilution, in duplicate, 25mM nocodazole is pinned in column 2. Please note, all concentrations are working concentrations. 5ul of 1pM purified luciferase enzyme is dispensed using the Kalypsys dispenser in column 4. Plates are incubated for 24 hrs at 37 deg C, 5% CO2, and 95% humidity. Then 4ul of the detection reagent Amplite (ABD Bioquest) is added using the Kalypsys dispenser. Plates are incubated for 10 min at ambient room temperature and are then read on the ViewLux (Perkin Elmer) using a clear filter for a luminescent read-out.", "values": [{"compound": "CNC(=O)Oc1cccc(-c2cn3cc(Cl)ccc3n2)c1", "activity change, positive = activation": "134%"}, {"compound": "COc1ccccc1CN1CCCC(C(=O)c2ccccc2OC)C1", "note": "(stereo not given)", "activity change, positive = activation": "inactive: -37.4%"}, {"compound": "CC(=NCCN1CCCCC1)c1c(O)[nH]c(=O)[nH]c1=O", "activity change, positive = activation": "29.9%"}, {"compound": "O=C(Nc1ccc(Cl)cc1)Nc1ccc(Cl)c(Cl)c1", "Potency": "active: 28.2 µM"}, {"compound": "COc1ccc(CCN2CCCC(CN(C)C(=O)c3cc(C)oc3C)C2)cc1", "note": "(stereo not given)", "Potency": "active: 35.5 µM"}, {"compound": "Cc1cc(OCCCC(=O)NCc2cccs2)ccc1Cl", "activity change, positive = activation": "32.6%"}, {"compound": "CN1CCN(c2c[nH]c(=O)[nH]c2=O)CC1", "activity change, positive = activation": "37.6%"}, {"compound": "C[C@]12CCC(=O)C(O)=C1CC[C@@H]1[C@@H]2CC[C@]2(C)C(=O)CC[C@@H]12", "activity change, positive = activation": "41.3%"}, {"compound": "CCn1nc(-c2ccccc2)nc2c(=O)n(C)c(=O)nc1-2", "activity change, positive = activation": "-39%"}, {"compound": "OC(c1ccccc1)(c1ccccc1)C1CCCN1", "note": "(stereo not given)", "activity change, positive = activation": "37.5%"}]}]}
